{"sequences": {"note": "Chains of the proteins cited; added tags and fusions are not shown.", "UniProt P19474": "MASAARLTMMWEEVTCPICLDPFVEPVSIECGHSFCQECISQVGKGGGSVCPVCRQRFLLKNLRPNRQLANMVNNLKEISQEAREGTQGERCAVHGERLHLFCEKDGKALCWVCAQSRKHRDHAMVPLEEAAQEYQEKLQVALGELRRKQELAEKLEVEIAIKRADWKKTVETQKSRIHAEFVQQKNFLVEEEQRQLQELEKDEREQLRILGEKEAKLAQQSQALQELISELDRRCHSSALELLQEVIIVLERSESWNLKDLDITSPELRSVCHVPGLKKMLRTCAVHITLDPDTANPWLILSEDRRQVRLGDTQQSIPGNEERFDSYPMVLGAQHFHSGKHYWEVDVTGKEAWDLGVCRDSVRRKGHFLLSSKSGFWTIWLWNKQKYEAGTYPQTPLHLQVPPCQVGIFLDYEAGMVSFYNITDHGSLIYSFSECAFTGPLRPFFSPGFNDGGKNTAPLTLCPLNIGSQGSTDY"}, "source": "paper PMC12403285", "target": "T1, Plakophilin-1 (human (endogenous in SK-MES-1)) (UniProt Q13835)", "T1 sequence": "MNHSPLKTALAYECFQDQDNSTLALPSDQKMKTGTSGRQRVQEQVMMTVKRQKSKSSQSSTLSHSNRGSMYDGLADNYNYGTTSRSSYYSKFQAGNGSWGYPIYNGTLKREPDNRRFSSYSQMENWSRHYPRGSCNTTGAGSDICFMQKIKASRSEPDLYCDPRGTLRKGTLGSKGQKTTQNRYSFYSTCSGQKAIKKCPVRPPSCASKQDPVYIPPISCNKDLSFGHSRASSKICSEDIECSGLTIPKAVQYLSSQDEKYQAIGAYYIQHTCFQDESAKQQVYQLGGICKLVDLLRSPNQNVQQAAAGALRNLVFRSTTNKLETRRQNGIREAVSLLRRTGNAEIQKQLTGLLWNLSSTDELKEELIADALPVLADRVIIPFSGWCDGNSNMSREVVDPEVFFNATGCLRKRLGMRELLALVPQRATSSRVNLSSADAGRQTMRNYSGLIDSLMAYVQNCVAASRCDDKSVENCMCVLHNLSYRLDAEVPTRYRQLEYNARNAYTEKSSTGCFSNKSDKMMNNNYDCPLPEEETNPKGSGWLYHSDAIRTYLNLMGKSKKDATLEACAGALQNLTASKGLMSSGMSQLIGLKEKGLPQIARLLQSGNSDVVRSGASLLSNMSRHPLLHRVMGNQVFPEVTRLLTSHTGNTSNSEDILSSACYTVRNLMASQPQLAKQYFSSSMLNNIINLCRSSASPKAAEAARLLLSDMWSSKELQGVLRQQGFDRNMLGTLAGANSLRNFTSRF", "assay": "affinity purification with mass spectrometry; immunoprecipitation of endogenous PKP1 in SK-MES-1 cells followed by MS/MS", "note": "No constants are given. Whether binding was seen depends on the method and setting. Binding seen in cells or lysates may run through a third protein. A yes stands for co-enrichment or nearness to the bait. Other partners may have been found.", "data": [{"substance": "TRIM21 (from UniProt P19474 1-475)", "values": [{"measurement": "binding", "result": "binds"}]}]}
